Some entries share one result that the patent states for a list of compounds.
Target: OXA-45 (Pseudomonas aeruginosa, UniProt Q7WZC7)
Experiment: β-lactamase inhibition assay with nitrocefin substrate, OXA-45
Type: biochemical
Experimental: Compounds of the present application were evaluated as inhibitors of two Class B β-lactamases (IMP-1 and VIM-2) and two Class D β-lactamases OXA-10 and OXA-45).
OXA-45 was a gift from Dr. J. Spencer, University of Bristol, and had been prepared and purified as described by Toleman, M. A. et al., Antimicrob. Agents Chemother. 2003, 47, 2859-2863.
Two methods were used for measurement of β-lactamase activity, based on the use of the substrate nitrocefin. The first was carried out in a cuvette (final volume 1 ml, 25° C.) with the aid of a Cary 5 spectrophotometer, and second was with the use of a Molecular Devices Spectramax 190 96 well plate reader (final volume 100 μl, 30° C.).
All assays were performed in the appropriate buffer for the enzyme: (i) IMP-1, VIM-2: 50 mM Hepes pH 7.3, 1 μg/ml BSA, 1 μM ZnSO4; (ii) OXA-45: 100 mM Na Phosphate/25 mM NaCO3 pH 7.0, 1 μg/ml BSA; and (iii) OXA-10: 100 mM Na Phosphate/25 mM NaCO3 pH 7.0. Enzyme concentrations were chosen so that a reasonable rate of reaction was observed. […] The enzyme was allowed to react with the inhibitor for a predetermined time followed by addition of substrate to initiate the reaction, which was monitored for an increase in absorbance at 482 nm. IC50 values were determined by plotting percent loss of initial activity vs log inhibitor concentration. […]

Sequences of proteins named here, by UniProt entry; tags and fusion partners are left off.
UniProt Q7WZC7, entry or part of it: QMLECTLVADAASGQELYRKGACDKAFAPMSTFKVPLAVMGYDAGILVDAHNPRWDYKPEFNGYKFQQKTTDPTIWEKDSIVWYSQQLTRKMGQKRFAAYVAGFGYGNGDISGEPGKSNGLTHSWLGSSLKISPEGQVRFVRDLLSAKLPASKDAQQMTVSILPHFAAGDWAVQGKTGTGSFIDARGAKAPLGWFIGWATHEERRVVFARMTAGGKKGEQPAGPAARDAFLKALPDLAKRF

O=C(N/N=C/c1c2ccccc2cc2ccccc12)c1cc2ccccc2cc1O [Compound 6, N′-(Anthracen-9-ylmethylene)-3-hydroxy-2-naphthohydrazide]
inhibition of OXA-45 (in words): good inhibitors
